Experimental data: PubChem BioAssay AID2685 (National Center for Advancing Translational Sciences (NCATS), 2010)
The list shows a part of the results. Shown are side measurements of this screen, not its main read-out; they come without a call. Compounds called inactive in the main read-out are mostly missing here. The note in brackets gives the kind of curve behind each potency; many fits are weak.

Assay: qHTS Assay for Lipid Storage Modulators in Drosophila S3 Cells;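 for cell number change: cells counted by Cell Tracker Red CMTPX staining in the red channel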
Settings: BODIPY lipid droplet fluorescence, 18-24 h; for cell number change: measured here: cell count max response, cells fed with added oleic acid
Summary of the method: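 Drosophila S3 cells got compounds at several concentrations plus oleic acid (400 uM solution). Laser-scanning cytometry with 488 nm excitation read lipid droplets at 500-530 nm and cells at 575-640 nm. Percent activity was relative to 20 uM Triacsin C.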

[1] = measured here: cell number channel AC50, cells fed with added oleic acid
[2] = measured here: lipid fluorescence (Fed channel) AC50, cells fed with added oleic acid

Structure (SMILES)	cell number change [%]	AC50 [1]	AC50 [2]
O=[N+]([O-])c1ccc(C2OCCO2)cc1CS(=O)(=O)c1ccccc1	-40.6	7.31 µM [falling, partial curve]	16.4 µM [falling, single point]
COC(=O)c1ccc(/C=N/Nc2nc3ccccc3[nH]2)cc1	75.9	10.3 µM [rising, partial curve]	–
CCCCOC(=O)CCc1n[nH]c(=O)[nH]c1=O	-21.7	–	0.731 µM [falling, full curve]
COc1ccc(O)c(C(=O)c2cnc3nc4ccccc4n3c2)c1	-20	–	29.1 µM [falling, single point]
CC1CCN(S(=O)(=O)c2cn(C)c(=O)n(C)c2=O)CC1	-28.4	–	23.1 µM [falling, partial curve, poor fit]
COc1ccccc1-c1cn[nH]c1-c1ccc(OCc2ccccc2F)cc1O	-69.2	20.6 µM [falling, single point]	29.1 µM [falling, single point]
CCOC(=O)C1CCN(C(=O)C2CCN(S(=O)(=O)c3c(C)noc3C)CC2)CC1	-7.36	–	–
O=C(Nc1ccccc1Cc1ccccc1)c1ccncc1	14.1	–	29.1 µM [falling, single point]
CCOc1ccc(OCc2ccc(C(=O)N(CC)CC)cc2)cc1	-11.9	–	–
CCCSC1=C(C#N)C(c2cccs2)CC(=O)N1 (configuration not stated)	-6.97	0.00651 µM [falling, full curve, poor fit]	–
O=C(NCc1cccnc1)Nc1cccc(F)c1	3.19	–	–
Cc1csc(NC(=O)CSc2nnc(C)c(=O)n2N)n1	4.92	–	–
COc1ccc(C)cc1NC(=O)C1CCN(C(=O)c2ccco2)CC1	23.7	–	–
NCCCCCc1cn(CC(=O)NCCCCCCCCCCC(=O)N2CCNCC2)nn1	4.15	–	–
CN1CCN(C(=O)CC2(CC(=O)O)CCCC2)CC1	-10.6	–	–
Cc1cccn2c(=O)nc(SCC(=O)NCc3ccccc3Cl)nc12	–	–	1.3 µM [rising, partial curve]
Cc1nc(Cl)c2c(n1)NC(=O)CO2	17.5	–	0.184 µM [falling, full curve, poor fit]
COc1ccc(NC(C)=O)cc1NC(C)C(=O)Nc1cc(C(F)(F)F)ccc1N1CCOCC1 (configuration not stated)	21.6	–	1.84 µM [rising, full curve, poor fit]
N#CC1=C2SC=C(c3ccc(Br)cc3)N2CCCC1=O	38.8	29.1 µM [rising, single point]	29.1 µM [rising, single point]
NCCCn1c(C(=O)c2cc(Cl)c(N)c(Cl)c2)c2ccccc2[n+]1[O-]	10.5	–	6.51 µM [falling, single point]
Cc1nc(NC(=O)c2ccc(-c3cc4ccccc4oc3=O)cc2)ccc1Br	117	29.1 µM [rising, single point]	0.146 µM [rising, full curve, poor fit]
CCc1noc(C)c1C(=O)Nc1ncc(C)s1	–	–	0.82 µM [rising, single point]

Quoted at random: three entries already listed.
Structure (SMILES)	cell number change [%]	AC50 [1]	AC50 [2]
CCOC(=O)C1CCN(C(=O)C2CCN(S(=O)(=O)c3c(C)noc3C)CC2)CC1	-7.36	–	–
COC(=O)c1ccc(/C=N/Nc2nc3ccccc3[nH]2)cc1	75.9	10.3 µM [rising, partial curve]	–
N#CC1=C2SC=C(c3ccc(Br)cc3)N2CCCC1=O	38.8	29.1 µM [rising, single point]	29.1 µM [rising, single point]

(continued)

Structure (SMILES)	cell number change [%]	AC50 [1]	AC50 [2]
O=C(Nc1ccc2c(c1)OCO2)C1CCCCN1S(=O)(=O)c1ccccc1 (configuration not stated)	–	0.0731 µM [rising, full curve, poor fit]	0.00651 µM [rising, full curve]
O=C(COC(=O)CNC(=O)c1ccc(Cl)cc1Cl)NC1CCCCC1	14.2	–	23.1 µM [rising, partial curve]
CC(=O)c1cccc(NC(=O)[C@@H](NC(N)=O)C(C)C)c1	-7.38	–	–
CCC(C)(C)NCC(=O)Nc1ccc(OC(F)(F)F)cc1	-46.7	18.4 µM [falling, partial curve, poor fit]	–
N#Cc1ccc(C(=O)OCC(=O)N2CCOCC2)cc1	15.4	0.00651 µM [rising, full curve, poor fit]	–
Cc1ccc(C)n1NC(=O)c1cccc(Cl)c1	–	–	0.58 µM [falling, single point]
Cc1c(CC(=O)NCCCC(=O)O)c(=O)oc2cc3c(cc12)CCC(C)(C)O3	-14.8	–	–
COC(=O)c1c(NC(=O)COC(=O)CC(NC(C)=O)c2ccccc2)sc(C)c1C (configuration not stated)	26.6	2.06 µM [rising, full curve, poor fit]	–
CC1=C([N+](=O)[O-])C(c2ccc3c(c2)OCO3)N(C)C(=O)N1C (configuration not stated)	23.9	0.82 µM [rising, full curve, poor fit]	–
O=C(O)CNC(=O)c1ccccc1	-38.9	0.058 µM [falling, full curve]	23.1 µM [falling, single point]
COc1cccc2[nH]c(C(=O)NCCc3ccccc3)cc12	22	–	–
COCCCn1c(=O)c2sccc2n2c(CCCC(=O)NCc3ccccc3OC)nnc12	18.7	–	6.51 µM [falling, single point]
Cc1sc(-c2ccccn2)nc1OC(=O)c1ccc(Cl)c(Cl)c1	0.62	–	0.146 µM [falling, full curve]
CC(=O)C1=C(O)C(=O)N(c2ccc(C(=O)O)cc2)C1c1ccccc1 (configuration not stated)	-6.87	–	–
O=C(NCCCN1CCCC1=O)Nc1ccc(Cl)cc1Cl	26.1	–	4.47 µM [rising, partial curve, poor fit]
COc1ccccc1N1CCN(CCCCCCOc2ccc(F)cc2)CC1	-30.8	29.1 µM [falling, single point]	–
C=CCn1c(Cc2cccs2)nnc1SC/C=C/c1ccccc1	34.7	0.13 µM [rising, full curve, poor fit]	–
Cc1[nH]nc2c1C(Cc1ccccc1)C(C#N)=C(N)O2 (configuration not stated)	2.52	–	0.58 µM [rising, single point]
Cc1cc(Cl)c(S(=O)(=O)Nc2ccon2)cc1OCC(=O)NC1CCCCC1	-33.3	32.6 µM [falling, single point]	2.06 µM [falling, partial curve]
COc1cccc(CN2C(=O)c3cccc(N)c3C2=O)c1	35.6	10.3 µM [rising, partial curve]	–
Cc1ccccc1C(=O)c1cccn1CC(=O)NCCCN1CCCCC1	46.9	–	29.1 µM [rising, single point]
CC(C)(C)OC(=O)N1CCC(C(=O)N[C@@H](Cc2ccccc2)C(=O)O)(c2ccccc2)CC1	-19.4	–	36.6 µM [falling, partial curve, poor fit]

Structure (SMILES)	cell number change [%]	AC50 [1]	AC50 [2]
NS(=O)(=O)c1cccnc1Nc1cccc(C(F)(F)F)c1	–	1.3 µM [rising, full curve, poor fit]	0.164 µM [rising, full curve, poor fit]
COc1cccc(NC(=O)CN(C)C(=O)Cn2[nH]c(=O)c3ccccc3c2=O)c1	-18.6	–	0.13 µM [falling, full curve, poor fit]
O=c1c2cccnc2[nH]c(=S)n1CCCN1CCN(c2ccc(F)cc2)CC1	-28.9	–	–
CCOC(=O)CSc1nnc(Cc2ccccc2)n1Cc1ccco1	-19.3	0.731 µM [falling, full curve, poor fit]	–
COc1ccc(C(C)=O)cc1COC(=O)Cc1n[nH]c(=O)c2ccccc12	26.1	–	1.03 µM [rising, partial curve, poor fit]
N#Cc1nc(Cc2ccccc2)oc1N1CCN(c2ccccc2)CC1	-9.42	–	–
S=c1[nH]nc(C2CCCCC2)n1/N=C/c1ccc(Br)cc1	-52	14.6 µM [falling, partial curve]	16.4 µM [falling, partial curve]
O=C(NCc1cc(C(F)(F)F)cc(C(F)(F)F)c1)C1CC(c2cccc([N+](=O)[O-])c2)=NO1 (configuration not stated)	–	5.8 µM [falling, single point]	–
COC(=O)NNC(=O)C12CC3CC(CC(C3)C1)C2	-11.2	–	–
COc1nnc(-c2ccc(C)c(S(=O)(=O)N(C)C)c2)c2ccccc12	-19.6	–	18.4 µM [falling, partial curve]
CCOc1ccc2[nH]c(=O)c(CN(Cc3ccccc3OC)C(=O)c3ccccc3)cc2c1	35.3	20.6 µM [rising, single point]	16.4 µM [rising, partial curve]
CC(Sc1nc2cc(Cl)ccc2s1)C(=O)Nc1cccc(S(=O)(=O)N2CCOCC2)c1 (configuration not stated)	–	–	29.1 µM [falling, single point]
Cc1ccc(S(=O)(=O)/N=C/c2ccco2)cc1	0.172	–	10.3 µM [rising, partial curve]
O=C(CSC1=NC(=O)C(c2ccccc2)C(=O)N1)Nc1cccc(Cl)c1 (configuration not stated)	-101	25.9 µM [falling, single point]	23.1 µM [falling, single point]
O=C(NCc1ccccc1)NC(=O)c1ccccc1F	-18.3	–	29.1 µM [rising, single point]
Cc1ccc(NC(=S)Nn2cnnc2)c(C)c1	25.7	–	6.51 µM [rising, single point]
O=S(=O)(NCc1csc(-c2cccnc2)n1)c1ccc(F)cc1	-22.6	–	23.1 µM [falling, single point]
Cn1c(-c2nonc2N)nc2ccccc21	–	–	6.51 µM [rising, partial curve]
CCOC(=O)c1[nH]cnc1C(=O)Nc1ccncc1	12.6	–	0.058 µM [rising, full curve, poor fit]
O=[N+]([O-])c1ccc(/C=C/c2ccc3cccc(O)c3n2)cc1	-20.3	–	18.4 µM [falling, single point]
